Data published in publication PMC11016466.
No constants are given. Whether binding was seen depends on the method and setting. In cells and extracts the contact can be indirect.

Biological target: T1, Ran GTPase activating protein 1 (human (endogenous in DLD1)) (UniProt P46060)
T1 sequence: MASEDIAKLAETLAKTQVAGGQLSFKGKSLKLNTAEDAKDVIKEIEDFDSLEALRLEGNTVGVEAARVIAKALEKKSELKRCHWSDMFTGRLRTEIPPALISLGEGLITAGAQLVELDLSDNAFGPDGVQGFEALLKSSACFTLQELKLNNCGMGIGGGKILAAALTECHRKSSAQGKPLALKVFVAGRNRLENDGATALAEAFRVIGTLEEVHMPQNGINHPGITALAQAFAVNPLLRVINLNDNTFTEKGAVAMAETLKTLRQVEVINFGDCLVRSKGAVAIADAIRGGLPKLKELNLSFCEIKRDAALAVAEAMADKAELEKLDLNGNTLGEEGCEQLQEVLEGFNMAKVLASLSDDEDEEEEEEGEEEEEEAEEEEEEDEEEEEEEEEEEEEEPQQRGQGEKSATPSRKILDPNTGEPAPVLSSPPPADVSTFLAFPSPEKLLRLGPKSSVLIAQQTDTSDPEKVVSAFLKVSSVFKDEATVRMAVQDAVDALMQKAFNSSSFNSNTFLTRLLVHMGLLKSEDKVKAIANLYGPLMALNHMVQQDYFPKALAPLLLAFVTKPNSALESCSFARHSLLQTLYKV
Experiment: co-IP; total proteins of DLD1 cells immunoprecipitated with an anti-RanGAP1 antibody; blot for CRABP2 (Fig. S5C)

- binding: no binding
B1: cellular retinoic acid-binding protein 2 (protein, UniProt P29373 1-138)
chain: MPNFSGNWKIIRSENFEELLKVLGVNVMLRKIAVAAASKPAVEIKQEGDTFYIKTSTTVRTTEINFKVGEEFEEQTVDGRPCKSLVKWESENKMVCEQKLLKGEGPKTSWTRELTNDGELILTMTADDVVCTRVYVRE
